According to PMC9561260:

B1: CRSP3 (protein, UniProt Q9ULK4 1-1368)
chain: METQLQSIFEEVVKTEVIEEAFPGMFMDTPEDEKTKLISCLGAFRQFWGGLSQESHEQCIQWIVKFIHGQHSPKRISFLYDCLAMAVETGLLPPRLVCESLINSDTLEWERTQLWALTFKLVRKIIGGVDYKGVRDLLKVILEKILTIPNTVSSAVVQQLLAAREVIAYILERNACLLPAYFAVTEIRKLYPEGKLPHWLLGNLVSDFVDTFRPTARINSICGRCSLLPVVNNSGAICNSWKLDPATLRFPLKGLLPYDKDLFEPQTALLRYVLEQPYSRDMVCNMLGLNKQHKQRCPVLEDQLVDLVVYAMERSETEEKFDDGGTSQLLWQHLSSQLIFFVLFQFASFPHMVLSLHQKLAGRGLIKGRDHLMWVLLQFISGSIQKNALADFLPVMKLFDLLYPEKEYIPVPDINKPQSTHAFAMTCIWIHLNRKAQNDNSKLQIPIPHSLRLHHEFLQQSLRNKSLQMNDYKIALLCNAYSTNSECFTLPMGALVETIYGNGIMRIPLPGTNCMASGSITPLPMNLLDSLTVHAKMSLIHSIATRVIKLAHAKSSVALAPALVETYSRLLVYMEIESLGIKGFISQLLPTVFKSHAWGILHTLLEMFSYRMHHIQPHYRVQLLSHLHTLAAVAQTNQNQLHLCVESTALRLITALGSSEVQPQFTRFLSDPKTVLSAESEELNRALILTLARATHVTDFFTGSDSIQGTWCKDILQTIMSFTPHNWASHTLSCFPGPLQAFFKQNNVPQESRFNLKKNVEEEYRKWKSMSNENDIITHFSMQGSPPLFLCLLWKMLLETDHINQIGYRVLERIGARALVAHVRTFADFLVYEFSTSAGGQQLNKCIEILNDMVWKYNIVTLDRLILCLAMRSHEGNEAQVCYFIIQLLLLKPNDFRNRVSDFVKENSPEHWLQNDWHTKHMNYHKKYPEKLYFEGLAEQVDPPVQIQSPYLPIYFGNVCLRFLPVFDIVIHRFLELLPVSKSLETLLDHLGGLYKFHDRPVTYLYNTLHYYEMHLRDRAFLKRKLVHAIIGSLKDNRPQGWCLSDTYLKCAMNAREENPWVPDDTYYCRLIGRLVDTMAGKSPGPFPNCDWRFNEFPNPAAHALHVTCVELMALAVSGKEVGNALLNVVLKSQPLVPRENITAWMNAIGLIITALPEPYWIVLHDRIVSVISSPSLTSETEWVGYPFRLFDFTACHQSYSEMSCSYTLALAHAVWHHSSIGQLSLIPKFLTEVLLPIVKTEFQLLYVYHLVGPFLQRFQQERTRCMIEIGVAFYDMLLNVDQCSTHLNYMDPICDFLYHMKYMFTGDSVKEQVEKIICNLKPALKLRLRFITHISKMEPAAVPPQAMNSGSPAPQSNQVPVSLPVTQ
B2: ZBTB10 (protein, UniProt Q96DT7 1-871)
chain: MSFSEMNRRTLAFRGGGLVTASGGGSTNNNAGGEASAWPPQPQPRQPPPPAPPALQPPNGRGADEEVELEGLEPQDLEASAGPAAGAAEEAKELLLPQDAGGPTSLGGGAGGPLLAERNRRTLAFRGGGGGGLGNNGSSRGRPETSVWPLRHFNGRGPATVDLELDALEGKELMQDGASLSDSTEDEEEGASLGDGSGAEGGSCSSSRRSGGDGGDEVEGSGVGAGEGETVQHFPLARPKSLMQKLQCSFQTSWLKDFPWLRYSKDTGLMSCGWCQKTPADGGSVDLPPVGHDELSRGTRNYKKTLLLRHHVSTEHKLHEANAQESEIPSEEGYCDFNSRPNENSYCYQLLRQLNEQRKKGILCDVSIVVSGKIFKAHKNILVAGSRFFKTLYCFSNKESPNQNNTTHLDIAAVQGFSVILDFLYSGNLVLTSQNAIEVMTVASYLQMSEVVQTCRNFIKDALNISIKSEAPESVVVDYNNRKPVNRDGLSSSRDQKIASFWATRNLTNLASNVKIENDGCNVDEGQIENYQMNDSSWVQDGSPEMAENESEGQTKVFIWNNMGSQGIQETGKTRRKNQTTKRFIYNIPPNNETNLEDCSVMQPPVAYPEENTLLIKEEPDLDGALLSGPDGDRNVNANLLAEAGTSQDGGDAGTSHDFKYGLMPGPSNDFKYGLIPGTSNDFKYGLIPGASNDFKYGLLPESWPKQETWENGESSLIMNKLKCPHCSYVAKYRRTLKRHLLIHTGVRSFSCDICGKLFTRREHVKRHSLVHKKDKKYKCMVCKKIFMLAASVGIRHGSRRYGVCVDCADKSQPGGQEGVDQGQDTEFPRDEEYEENEVGEADEELVDDGEDQNDPSRWDESGEVCMSLDD

Molecular target: T1, 2× HA-3× FLAG-Eya1 (UniProt P97767)
T1 sequence: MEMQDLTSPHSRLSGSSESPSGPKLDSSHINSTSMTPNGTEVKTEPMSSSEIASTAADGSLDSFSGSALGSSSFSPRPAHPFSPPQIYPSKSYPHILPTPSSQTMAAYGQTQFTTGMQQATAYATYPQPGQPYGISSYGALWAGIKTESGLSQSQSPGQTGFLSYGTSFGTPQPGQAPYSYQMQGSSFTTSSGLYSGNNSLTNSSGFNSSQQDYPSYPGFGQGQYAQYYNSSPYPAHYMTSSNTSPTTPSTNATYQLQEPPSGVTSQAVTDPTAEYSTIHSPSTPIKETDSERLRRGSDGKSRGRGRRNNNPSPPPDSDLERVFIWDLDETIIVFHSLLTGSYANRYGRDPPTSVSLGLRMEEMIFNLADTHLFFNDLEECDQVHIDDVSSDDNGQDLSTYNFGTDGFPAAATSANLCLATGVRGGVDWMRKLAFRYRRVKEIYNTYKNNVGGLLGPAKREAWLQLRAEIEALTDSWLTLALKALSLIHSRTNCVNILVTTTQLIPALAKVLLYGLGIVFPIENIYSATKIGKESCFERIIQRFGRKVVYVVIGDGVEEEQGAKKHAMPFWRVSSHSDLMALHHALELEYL
Experiment: affinity purification with mass spectrometry; tandem purification of HF-Eya1 from lysate of stable HEK293 cells: anti-FLAG M2 beads, FLAG peptide elution, then anti-HA agarose; 50 mM Tris-HCl pH 7.5, 150 mM NaCl, 0.1% Nonidet P-40, 4°C; 12 bands (B1-B12) cut from a silver-stained gel

| Binder | binding |
| --- | --- |
| B1 | binds |
| B2 | binds |

These are yes or no findings as the source states them, for the method shown. Binding seen in cells or lysates may run through a third protein. Here binding means that the protein was enriched with, or labelled near, the bait; the list need not be complete. Tags and fused reporters may be left off the sequences shown.
